In article PMC12040169 (PLOS Biology, 2025):
Some of the results follow.

Each compound was assayed on T1, CTL2-GFP (C. trachomatis L2/434/Bu, GFP-expressing). Conditions: bulk GFP, single well; 28.5 h, 10 µM; inhibitor.
T1 construct: L2/434/Bu, GFP-expressing
Design: species or system HeLa; Intracellular C. trachomatis growth in HeLa cells, bulk GFP fluorescence relative to DMSO

SMILES	% of control remaining [%]
Cc1ccccc1OCCCNCCN1CCOCC1 [CBK268590C]	113.614
CC1CCCN(C(=O)c2cc(S(=O)(=O)N3CCOCC3)ccc2Cl)C1 (centres unmarked) [CBK305012]	112.786
Cc1noc(C)c1C(=O)N1CCc2ccccc2C1 [CBK200333]	116.618
CCc1cc2c(=O)c(-c3nc(C)cs3)c(C)oc2cc1OCc1ccc([N+](=O)[O-])cc1 [CBK268305]	108.79
O=C(O)C1CCN(C(=O)Cc2c[nH]c3ccccc23)CC1 [CBK202747]	104.223
CC(=O)N1CCN(Cc2oc(C)cc(=O)c2O)CC1 [CBK288383]	127.814
COc1ccc(CN2CCN(C(=O)NS(=O)(=O)c3ccc(C)cc3)CC2)cc1F [CBK297156]	92.7682
O=C(O)CCc1nc2ccccc2n1C1CCCCC1 [CBK286961]	118.298
COc1ccc([C@@]23CC[C@@H](NC(=O)Nc4cccc(Br)c4)C[C@@H]2N(C)CC3)cc1OC [CBK038225T]	99.3872
CNC(=O)c1sc2ccccc2c1C1CCN(Cc2cnn(-c3ccc(F)cc3)c2)C1 (centres unmarked) [CBK285882]	137.364
CC(C)(C)NC(=O)Cn1cnc2c(cnn2-c2ccccc2)c1=O [CBK269586]	99.2994
O=C(Nc1ccccc1Cl)N1CCN(CCN2CCOCC2)CC1 [CBK155824]	100
COc1ccc([C@]23CC[C@H](NC(=O)c4ccc(C(F)(F)F)c(F)c4)C[C@H]2CN(C)C3)cc1OC [CBK082743T]	122.288
COc1ccc(C)cc1N(CC(=O)Nc1ccc(F)c(F)c1)S(C)(=O)=O [CBK267006]	155.187
COCCNC(=O)c1ccc(-c2ccccc2OC)nc1N(C)C [CBK106052]	121.419
COc1ccc(C(=O)C2=C(O)C(=O)N(CCCN(C)C)C2c2ccncc2)cc1C (centres unmarked) [CBK264871]	109.3
O=C(/C=C/c1cccc([N+](=O)[O-])c1)Nc1ccc(Cl)c(-c2nc3ccccc3o2)c1 [CBK264610]	121.906
CCOc1nc2c(c(C(F)(F)F)n1)CC(C)C/C2=C\c1ccccc1 (centres unmarked) [CBK265800]	116.308
C=CCn1c(C)c(C)n2c3c(=O)n(CCN4CCOCC4)c(=O)n(C)c3nc12 [CBK269778]	132.548
CN(c1cccc(C#N)c1)C1CCN(c2ncnc3c2cnn3C)C1 (centres unmarked) [CBK304720]	121.587
CCCn1c(SCc2nc(N)nc(Nc3ccccc3CC)n2)n[nH]c1=O [CBK296966]	135.426
C[C@@H]1CN(C(=O)OCCc2cccs2)C[C@H](C)O1 [CBK200416]	54.7335
CN1CCN(C(=S)c2ccc(OCC(=O)Nc3cccc(C(F)(F)F)c3)cc2)CC1 [CBK266826]	108.582
O=C(O)c1[nH]c2ccccc2c1/C=N/Cc1ccccc1Cl [CBK294456]	148.719
CN(CCCC(=O)O)c1nc(-c2ccc(Br)cc2)cs1 [CBK299834]	110.681
Clc1ccc(OCc2nc3ccccc3n2CCOc2ccccc2)c(Cl)c1 [CBK264728]	116.666

SMILES	% of control remaining [%]
COC(=O)c1ccc(/C=N/N=C2\NC(=O)C(CC(=O)Nc3ccccc3)S2)cc1 (centres unmarked) [CBK264483]	137.661
CC(=O)N1CCc2c(sc(NC(=O)c3ccc(N(C)C)cc3)c2C#N)C1 [CBK304333]	114.206
CS(=O)(=O)N1CC2(CCN(Cc3ccc(OC(F)(F)F)cc3)CC2)c2ccccc21 [CBK126668]	94.8439
COc1ccc2c(c1)C1(CC(=O)N(C)C1=O)C(=O)N2CCCC(=O)O (centres unmarked) [CBK076109]	148.017
COCCN(C)S(=O)(=O)c1cc(C)c(Cl)cc1C [CBK043867]	117.462
COc1ccc(S(=O)(=O)N(Cc2cc(F)cc(F)c2)C2CCNCC2)cc1 [CBK165292T]	126.289
O=C1NC2(CCc3ccccc31)CCN(Cc1ccncc1)C2 (centres unmarked) [CBK284610]	109.161
OCCN1CCN(CC(O)COCc2ccccc2)CC1 (centres unmarked) [CBK278262C]	96.8384
CC(C)Cc1ccc(-c2cc(NCCc3ccccn3)ncn2)cc1 [CBK091088]	126.516
O=C1/C(=N\Nc2ccc([N+](=O)[O-])cc2[N+](=O)[O-])c2cc(Br)ccc2N1CN1CCCCC1 [CBK260927]	110.817
O=C(O)c1ccc2c(c1)C(=O)N(CCCN1CCOCC1)C2=O [CBK269245]	160.015
CC(=O)N1CCN(C(=O)NC(C)C)C[C@@H]1C(=O)N[C@@H](CC1CCCCC1)C(N)=O [CBK289633]	109.148
O=C(NCCc1c[nH]cn1)N1CCN(Cc2ccccc2)CC1 [CBK155629]	108.312
O=C(c1ccc(-c2cncc(-c3ccc(O)cc3)n2)cc1Cl)N1CCOCC1 [CBK123790]	96.2531
CCC(CN1CCN(C)CC1)NC(=O)C1(c2cccc(F)c2)CC1 (centres unmarked) [CBK282786]	89.4657
COc1ccccc1-n1nc(-c2ccncc2)nc1C1CCOCC1 [CBK307229]	95.5466
O=C(O)c1ccc2c(c1)C(=O)N(c1cccc(/C=C/C(=O)c3cccc(N4C(=O)c5ccc(C(=O)O)cc5C4=O)c3)c1)C2=O [CBK261178]	120.76
CC(C)C(=O)Nc1ccc2[nH]cc(C(C(=O)O)N3CCN(c4ccccc4)CC3)c2c1 (centres unmarked) [CBK286645]	120.653
CN(CCN(C)C(=O)c1cc2sccc2[nH]1)CC(F)F [CBK306014]	115.521
O=C(Nc1ccc(F)cc1)c1cccc(NS(=O)(=O)c2cc(Br)c(Cl)s2)c1 [CBK050410]	158.436
CCOC(=O)c1[nH]c(=O)[nH]c1CSc1ccccn1 [CBK027725]	124.482
CCOC(=O)c1[nH]c2ccccc2c1NC(=O)COc1ccc(Cl)cc1Cl [CBK160134]	122.094
Cc1ccc(NC(=O)CSc2cnn[nH]2)cc1 [CBK270136]	116.819
O=C1NCCNC(=O)C2(C/C=C/COc3ccccc31)CCCN(Cc1cscn1)C2 (centres unmarked) [CBK292125]	110.203
O=C(c1ccco1)N1CCC(c2onc3c2CCCCC3)CC1 [CBK284486]	119.502
CN1C[C@H](C(N)=O)[C@@H](c2ccc(CN(C)C(=O)c3cccc(Oc4ccccc4)c3)cc2)C1 [CBK285572]	104.29

Two entries from above, with bars between the fields.
SMILES | % of control remaining [%]
CCC(CN1CCN(C)CC1)NC(=O)C1(c2cccc(F)c2)CC1 (centres unmarked) [CBK282786] | 89.4657
COc1ccccc1-n1nc(-c2ccncc2)nc1C1CCOCC1 [CBK307229] | 95.5466

Of the compounds above, three contain a nitro group on carbon.
SMILES	% of control remaining [%]
CCc1cc2c(=O)c(-c3nc(C)cs3)c(C)oc2cc1OCc1ccc([N+](=O)[O-])cc1 [CBK268305]	108.79
O=C(/C=C/c1cccc([N+](=O)[O-])c1)Nc1ccc(Cl)c(-c2nc3ccccc3o2)c1 [CBK264610]	121.906
O=C1/C(=N\Nc2ccc([N+](=O)[O-])cc2[N+](=O)[O-])c2cc(Br)ccc2N1CN1CCCCC1 [CBK260927]	110.817

(continued)

SMILES	% of control remaining [%]
COc1ccc(C(=O)N2CC[C@H]3CC(=O)N(CCN4CCNC4=O)CC[C@H]3C2)cc1 [CBK288795]	116.475
Cc1c(Cl)cccc1S(=O)(=O)NC1=NC(=O)C(CC(=O)Nc2ccccc2Cl)S1 (centres unmarked) [CBK200043]	104.522
CCn1cc(S(=O)(=O)N2CCN(c3cccc(C(F)(F)F)c3)CC2)cn1 [CBK270328]	122.355
O=C(CSc1ncnc2sc3c(c12)CCC3)Nc1nsc(-c2ccc(Cl)cc2)n1 [CBK266484]	77.355
CC(C)(CNC(=O)c1ccc(=O)n(CC(=O)NC2CCCCC2)c1)c1ccccc1F [CBK285983]	132.859
CN(C)c1nc(NCc2ccccc2)nc(SCC(=O)Nc2ccc(Cl)c(Cl)c2)n1 [CBK267289]	113.696
COc1ccc(CCNC(=O)N2CCCC(C(=O)O)C2)cc1 (centres unmarked) [CBK161367]	139.65
O=c1[nH]c2ncc(-c3ccoc3)nc2n1C1CCOCC1 [CBK064973]	114.982
CC(=O)Nc1ccc(C(=O)CSc2nc(-c3ccccc3)c(-c3ccccc3)o2)cc1 [CBK266168]	144.722
CCN(CC)Cc1cc(C(C)(C)C)oc1C(=O)O [CBK266013C]	150.34
CS(=O)(=O)Nc1cc2ccccc2c(-c2ccc(OCc3ccccc3)c(F)c2)n1 [CBK073785]	70.9034
CCCn1cc(C(=O)NCC2CCN(c3ccccc3F)C2)c(C)n1 (centres unmarked) [CBK304634]	107.009
Cc1ccc(NS(=O)(=O)c2ccc(OCC(=O)Nc3ccccc3C(F)(F)F)cc2)cc1 [CBK269120]	156.896
Nc1ncnc(NCCCN2CCOCC2)c1[N+](=O)[O-] [CBK267267]	144.116
NC(=O)C1CCN(C2CC(=O)NC2=O)CC1 (centres unmarked) [CBK263290]	99.3225
O=C(Nc1ccccc1)c1ccc(-c2ccccc2)cc1 [CBK261346]	121.327
Cc1nc2nc(N)nn2c(C)c1CCC(=O)NCCc1ccccc1 [CBK304989]	111.827
Cc1cc(C(=O)N(CCC#N)Cc2cccs2)no1 [CBK057316]	98.0582
Cc1ccc(N(CC(=O)NCC2CCCO2)S(C)(=O)=O)cc1 (centres unmarked) [CBK058709]	118.546
Fc1cccc(C2NC(=S)NC3=C2N2CCC3CC2)c1 (centres unmarked) [CBK288503]	106.49
Cc1nn(C)c(C(=O)NNC(=S)Nc2ccc(S(N)(=O)=O)cc2)c1Br [CBK266963]	180.638
O=C(NCCc1cccs1)Nc1ccc(F)c(F)c1F [CBK044543]	99.3961
Cc1cc2ncn(CC(=O)NC3Cc4ccccc4C3)c2cc1C [CBK200261]	109.904
CCCCC(c1cccnc1)N(C)C(=O)c1cc(CC)[nH]c(=O)c1 (centres unmarked) [CBK307216]	119.685
CC(=O)N1CCc2nc(CC3CC3)nc(NCCn3ccnn3)c2CC1 [CBK306933]	123.455
